Test results published in US10022372B2, “Caveolin-1 related methods for treating glioblastoma with temozolomide” (THOMAS JEFFERSON UNIVERSITY, priority 2013, dated 2018).
At least one structure is not confirmed: it was looked up by name or label, or the drawing left a doubt.

Assays:
[1] = system: Cav-1 overexpressing U-87MG cells (LV105 Cav-1); assay: Annexin V / propidium iodide flow cytometry of TMZ-treated U-87MG cells; format: cell-based, human; details: 72 hours of TMZ treatment, not statistically significant
Procedure: FIG. 5. […] Each group is normalized to its own DMSO control (*p<0.05 and **p<0.01 vs internal DMSO control, \p<0.01 vs TMZ treated LV105 control, n=3 per group).
U-87MG cells (50,000/well) were plated in 12-well tissue culture dishes and allowed to attach overnight prior to changing their medium into complete EMEM containing either 500 μM TMZ or DMSO control and culturing them for an additional 72 hours. Cells were then trypsinized, centrifuged at 300×g for 5 min and resuspended in binding buffer with APC-conjugated anti-Annexin V antibody (BP Biosciences) and 0.33 μg/ml Propidium Iodide (PI, KPL, Gaithersburg, Md.). All samples were run on a BD FACSCalibur flow cytometer (BD Biosciences). Cells were quantified according to staining as follows: viable (Annexin V negative, PI negative), early apoptotic (Annexin V positive, PI negative), late apoptotic (Annexin V positive, PI positive), and dead (Annexin V negative, PI positive).

[2] = system: Cav-1 expression; details: in vivo, orthotopic GBM xenograft models; cited from earlier work
[3] = neutral and alkaline pH values; cited from earlier work

## Cn1nnc2c(C(N)=O)ncn2c1=O [temozolomide, 3,4-dihydro-3-methyl-4-oxoimidazo[5,1-d]-αs-tetrazine-8-carboxamide]
[1]
  late-apoptotic and dead cells: expanded late-apoptotic and dead cells
[2]
  Cav-1 expression: upregulation of Cav-1 expression
[3]
  hydrolysis to MTIC: rapidly hydrolyzed
